This passage reports cell number change and AC50 results from PubChem BioAssay AID2685 (National Center for Advancing Translational Sciences (NCATS), 2010).

This assay can be described thus: qHTS Assay for Lipid Storage Modulators in Drosophila S3 Cells.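 As to cell number change: cells counted by Cell Tracker Red CMTPX staining in the red channel.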 The conditions noted are these: BODIPY lipid droplet fluorescence, 18-24 h; for cell number change: measured here: cell count max response, cells fed with added oleic acid. In a few lines: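 Drosophila S3 cells loaded with oleic acid (400 uM, as added) and compounds at several concentrations; lipid droplets imaged by 488-nm laser-scanning cytometry, 500–530 nm intensity and object ratio to cell channel. Percent activity normalized to 20 uM Triacsin C.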

Setting [1] is: measured here: lipid fluorescence (Fed channel) AC50, cells fed with added oleic acid.
[2] abbreviates: measured here: cell number channel AC50, cells fed with added oleic acid.

Some of the results follow. Shown are side measurements of this screen, not its main read-out; they come without a call. Compounds called inactive in the main read-out are mostly missing here. Words in brackets tell the shape of the fitted curve; partial curves, single points and poor fits give uncertain potencies.

The term AC50 denotes the concentration at which the activity in the assay is half-maximal. Consider `O=C(/C=C/c1ccccc1)Nc1cc(C(=O)O)cc(C(=O)O)c1`, for which the cell number change is 24.6%. For the same compound, the AC50 under setting [1] is 0.651 µM [rising, full curve, poor fit].

Consider `CS(=O)(=O)c1ccc(-c2cccc(NC(=O)COc3ccc(Cl)cc3)c2)nn1`, for which the cell number change was determined as 58.5%. Further, under setting [2], the AC50 is 14.6 µM [rising, single point]. Under setting [1], the AC50 was 0.82 µM [falling, single point].

Consider `COc1ccc(/C=C/C(=O)c2cc(Br)ccc2OC(=O)c2ccco2)cc1OC`, for which the cell number change was -45.5%. Further, the half-maximal activity concentration (AC50) under setting [2] was 11.6 µM [falling, partial curve]. Also, under setting [1], the AC50 is 20.6 µM [falling, partial curve].

Consider `COc1cccc(C(=O)Nc2cccc(SC)c2)c1`, for which the cell number change came out at 6.05%. Under setting [1], the concentration at half-maximal activity (AC50) is 29.1 µM [rising, single point].

`Cc1cc(C)cc(NC(=O)N2CCC(c3nc4ccccc4o3)CC2)c1`: the AC50 under setting [2] is 0.116 µM [rising, full curve].

Consider `Cc1cc(=O)[nH]c(SCC(=O)Nc2ccc(Cl)cn2)n1`, for which the cell number change is 121%. Further, the AC50 under setting [2] was 23.1 µM [rising, single point].

Take `COc1ccc(C2=C3C(=O)OCC3Cc3ncn(Cc4ccccc4)c32)cc1` (stereo not given): the cell number change is 22.8%. For the same compound, the AC50 under setting [1] is 0.146 µM [falling, single point].

In the case of `O=C(NCCc1nnc2ccc(SCC(=O)N3CCCC3)nn12)c1ccc(F)cc1`, the cell number change is -31.2%. In addition, the AC50 under setting [2] was 0.461 µM [rising, single point]. For the same compound, under setting [1], the concentration at half-maximal activity (AC50) is 0.82 µM [falling, full curve].

Turning to `COc1ccc(C(=O)N2CCN(C)C(=O)[C@@H]2C)cc1OC1CCN(C(C)=O)CC1`, the AC50 under setting [1] is 32.6 µM [falling, single point].

As to `COc1ccc(C(=O)NC(C)c2cc(OC)c(OC)cc2Br)cc1` (stereo not given), the cell number change came out at 44.8%. The AC50 under setting [2] is 6.51 µM [falling, single point].

`Cc1sc2nc(CN3CCOCC3)nc(NCCc3ccccc3)c2c1C`: the cell number change is -20.6%. Also, the AC50 under setting [1] is 14.6 µM [falling, partial curve].

For the compound `CCOC(=O)N1CCN(C(=S)NC(=O)/C=C/c2ccc(C)cc2)CC1`, the cell number change turned out to be 17.9%. Further, the AC50 under setting [1] was 23.1 µM [rising, single point].

For the compound `O=c1c2ccccc2cnn1Cc1n[nH]c(=S)n1-c1ccccc1`, the cell number change was -50%. Besides, the AC50 under setting [2] was 29.1 µM [falling, single point]. Also, under setting [1], the AC50 is 23.1 µM [rising, partial curve, poor fit].

In the case of `COc1ccc(NC(=O)C(CC(=O)O)Cc2ccc(Cl)cc2)cc1` (stereo not given), the cell number change worked out at 0.73%. Besides, under setting [1], the AC50 is 16.4 µM [rising, partial curve].

For the compound `COc1ccc(C(=O)NCc2cccnc2)cc1S(=O)(=O)N1CCOCC1`, the cell number change is -2.01%. Moreover, the AC50 under setting [1] is 23.1 µM [falling, partial curve].

As to `COCCn1c(C)cc(C(=O)CSc2nc3nc(C)cc(C)n3n2)c1C`, the cell number change worked out at 34.9%. For the same compound, the AC50 under setting [2] is 6.51 µM [falling, single point]. Further, the AC50 under setting [1] was 23.1 µM [rising, single point].

As for `O=C(CSc1nc2ccccc2[nH]1)c1ccc(Cl)s1`, the cell number change was found to be 30.9%. In addition, under setting [2], the AC50 was 1.84 µM [rising, partial curve, poor fit].

With `COc1ccc(/C=C/C(=O)OCc2cccc([N+](=O)[O-])c2)cc1`, the cell number change is -3.42%. Also, the AC50 under setting [2] was 0.731 µM [falling, full curve, poor fit].

For the compound `CCCN1C(=O)CC(Sc2ncccc2C(=O)O)C1=O` (stereo not given), the cell number change was -21.3%. Further, the AC50 under setting [1] is 4.11 µM [falling, full curve].

`CCc1ccc(NC(=O)CSc2nc(=O)n(CCN(C)C)c3c2CCCC3)cc1`: the cell number change is -20%. In addition, the AC50 under setting [2] is 2.06 µM [falling, full curve, poor fit]. In addition, the AC50 under setting [1] was 2.06 µM [falling, partial curve, poor fit].

Regarding `Cc1c(NC(=O)c2cccc(NS(C)(=O)=O)c2)c(=O)n(-c2ccccc2)n1C`, the half-maximal activity concentration (AC50) under setting [1] is 23.1 µM [rising, single point].

As to `COc1ccccc1C1C(C(N)=O)=C(C)Nc2nc(-c3ccccc3Cl)nn21` (stereo not given), the cell number change came to 18.1%. In addition, under setting [1], the AC50 is 20.6 µM [rising, single point].

Consider `CCN1CCCC1CNc1ncnc2c1[nH]c1ccc(Cl)cc12` (stereo not given), for which the cell number change is -3.35%. The AC50 under setting [1] is 2.06 µM [rising, full curve].

Consider `CCN(CC)CCCOC(=O)C1(c2ccccc2)CCCC1`, for which the cell number change is -57.9%. Under setting [2], the AC50 was 16.4 µM [falling, partial curve, poor fit]. The AC50 under setting [1] is 23.1 µM [falling, partial curve].

Regarding `CCOc1ccccc1NS(=O)(=O)c1cc2c3c(c1)CC(=O)N3CCC2`, the cell number change is 7.63%.

Turning to `O=C(O)CCN1C(=O)c2ccc(NC(=O)COc3ccccc3)cc2C1=O`, the cell number change was 21.8%. The AC50 under setting [1] is 23.1 µM [rising, single point].

Take `CC(C)(C)NC(=O)CSc1nc(O)cc(=O)[nH]1`: the cell number change is -11.1%. Under setting [2], the AC50 is 0.058 µM [rising, full curve, poor fit].

`O=C(NC1CCN(C(=O)Nc2cccc(Cl)c2)CC1)C1CCCCC1`: the cell number change turned out to be 29.5%. In addition, the AC50 under setting [2] was 1.46 µM [rising, full curve, poor fit]. In addition, the AC50 under setting [1] was 6.51 µM [falling, single point].

For the compound `FC(F)(F)c1nc2ccccc2nc1N/N=C\c1ccccc1`, the cell number change was -93.6%. For the same compound, under setting [2], the AC50 was 18.4 µM [falling, partial curve]. The AC50 under setting [1] was 13 µM [falling, partial curve].

`COc1ccc(N2C(=O)C(C)(C)C2c2c(O)ccc3ccccc23)cc1` (stereo not given): the cell number change is -33%. Besides, the AC50 under setting [2] was 0.0651 µM [falling, full curve, poor fit]. In addition, under setting [1], the AC50 was 2.31 µM [falling, full curve].

On to `O=P(O)(CN1CCCCCC1)CN1CCCCCC1`, for which the cell number change was -168%. Moreover, under setting [2], the AC50 is 25.9 µM [falling, partial curve]. Also, under setting [1], the AC50 is 6.51 µM [falling, single point].

Take `CCOc1ccc(Br)cc1S(=O)(=O)Nc1ccc(C(=O)Nc2ccc(C)cc2)cc1`: the cell number change was 2.77%. Also, the AC50 under setting [1] is 3.66 µM [rising, single point].

In the case of `CCN(C(=O)CSc1nc2ccccc2c(=O)n1-c1cccc(C)c1)C1CCS(=O)(=O)C1` (stereo not given), the cell number change was found to be 8.45%. Moreover, the AC50 under setting [1] was 3.26 µM [falling, single point].

`CCOC(=O)C1(Cc2cccc(OC)c2)CCN(CC2CC=CCC2)CC1` (stereo not given): the cell number change is -4.62%. In addition, the AC50 under setting [1] was 0.461 µM [falling, single point].

In the case of `Cc1ccc2cc(CN(Cc3ccco3)C(=O)C3CCCCC3)c(=O)[nH]c2c1C`, the cell number change is 6.29%. The AC50 under setting [1] is 0.82 µM [rising, full curve, poor fit].

With `CNC(=O)c1cc(Oc2ccc(NC(=O)Nc3ccc(Cl)c(C(F)(F)F)c3)cc2)ccn1`, the cell number change was -24.1%. For the same compound, the AC50 under setting [2] is 1.64 µM [falling, partial curve].

`CCN(C(=O)c1c(C)noc1C)c1c(N)n(Cc2ccccc2)c(=O)[nH]c1=O`: the cell number change was -1.12%. The AC50 under setting [1] is 0.00517 µM [falling, full curve, poor fit].

Turning to `COCCn1c(-c2cccc([N+](=O)[O-])c2)nc2c1c(=O)[nH]c(=O)n2Cc1ccccc1`, the cell number change is -50%. Besides, the AC50 under setting [2] was 29.1 µM [falling, single point]. Moreover, the AC50 under setting [1] is 8.2 µM [rising, partial curve, poor fit].

As to `CCOC(=O)CCNC(=O)Nc1ccc2nc(C)n(Cc3cccc(Cl)c3)c(=O)c2c1`, the cell number change was -0.529%. The AC50 under setting [1] is 0.461 µM [rising, full curve].

On to `CCCCC(CC)CNC(=O)CCS(=O)(=O)c1cccc2nonc12` (stereo not given), for which the cell number change was 3.92%. Moreover, the AC50 under setting [1] is 29.1 µM [rising, single point].

Consider `CCN(CC)C(=O)c1sc(NC(=O)C(Sc2ccccc2)c2ccccc2)c(C(=O)OC(C)C)c1C` (stereo not given), for which the cell number change was 52%. The AC50 under setting [1] is 6.51 µM [rising, single point].

As to `CCN(CC)c1ccc(/C=N/n2c(=S)[nH]nc(C)c2=O)cc1`, the cell number change worked out at 14.8%. Besides, the AC50 under setting [1] is 29.1 µM [rising, single point].

Regarding `COCCSc1nnc(NC(=O)C2CC(=O)N(CCc3ccc(F)cc3)C2)s1` (stereo not given), the cell number change came out at 24.8%. Moreover, the AC50 under setting [1] is 29.1 µM [rising, single point].

On to `O=C1CCCN1CCCNS(=O)(=O)c1ccc(F)cc1F`, for which the cell number change was -16.2%. For the same compound, the AC50 under setting [1] was 32.6 µM [falling, single point].

On to `COc1cc(-c2noc(-c3ccccc3C(=O)NCc3ccco3)n2)cc(OC)c1OC`, for which the cell number change was determined as 10%. Moreover, under setting [2], the AC50 was 2.06 µM [rising, partial curve]. For the same compound, the half-maximal activity concentration (AC50) under setting [1] is 2.06 µM [rising, full curve].

As for `CCSc1nnc(NC(=O)c2cc3c(s2)CCCC3)s1`, the cell number change was -34.9%. In addition, under setting [2], the AC50 is 4.11 µM [falling, full curve, poor fit]. In addition, the AC50 under setting [1] is 20.6 µM [falling, single point].

With `CC(C)(C)c1ccc(C(=O)NCCC(=O)NCc2cccs2)cc1`, the AC50 under setting [1] is 0.291 µM [rising, partial curve, poor fit].

Take `O=C(c1cccc(S(=O)(=O)N2CCN(c3ccccc3)CC2)c1)N1CCN(c2ccccc2O)CC1`: the cell number change came out at 6.61%.

Regarding `COc1cccc2c1C(=O)c1c(O)c3c(c(O)c1C2=O)C[C@@](O)(C(C)=O)C[C@@H]3O[C@H]1C[C@H](N)[C@H](O)[C@H](C)O1`, the cell number change is -103%. Besides, the half-maximal activity concentration (AC50) under setting [2] was 2.31 µM [falling, full curve]. Besides, the AC50 under setting [1] is 1.46 µM [falling, full curve].

Turning to `CCN(CC)CCN(C(=O)c1ccc2c(c1)CCCC2)c1nc2ccc(C)cc2s1`, the cell number change is -1.51%.

With `Cn1c2ccccc2c2c(C(=O)NCc3ccco3)cn(C3CCCCC3)c(=O)c21`, the cell number change was found to be 51.4%. Further, under setting [2], the AC50 is 29.1 µM [rising, single point]. Moreover, the AC50 under setting [1] was 7.31 µM [rising, partial curve, poor fit].

Regarding `O=C(O)CCCCCNc1nc2ncn(Cc3ccccc3)c2c(=O)[nH]1`, under setting [1], the concentration at half-maximal activity (AC50) is 25.9 µM [falling, partial curve].

Consider `Cc1ccc(C(=O)CC(C(=O)O)n2cncn2)cc1` (stereo not given), for which the cell number change turned out to be 29.8%. For the same compound, the AC50 under setting [1] is 5.8 µM [rising, full curve].

For the compound `Cc1c(N=c2scc(-c3ccccc3)n2CCO)c(=O)n(-c2ccccc2)n1C`, the cell number change was -10.3%.
